The nature of the series: Caco-2 assay. It is filed as in vitro ADME. Particulars: human, Caco-2, Caco-2 Papp. As to the method:
Caco-2 cells obtained from ATCC were plated on filters of a 24-well Boyden chamber and allowed to replicate for five days. Prior to initiating a study, the integrity of the cell layer was assessed by measuring the transepithelial electrical resistance (TEER) values. […] After 1h, medium was removed from the bottom chamber. After completion of the assay, the integrity of the cell layer was measured by transfer of the fluorescent dye, Lucifer yellow, across the cell layer. Samples taken from the apical chamber at the start of the study and from the basal chamber at the end of the study were assessed for drug levels using LC-MS/MS technology and used to calculate the apparent permeability (Papp).

The record followed here is paper PMC5489165, “Identification of benzazole compounds that induce HIV-1 transcription” (PLoS ONE, 2017).

For the molecule `CC(C)NCC(O)COc1ccc(CC(N)=O)cc1` (stereo not shown) [Atenolol, reference compound], the Papp A→B (usually the apparent permeability from the apical to the basolateral side of a cell layer) at 1 h, 10 μM is 0.23 ×10⁻⁶ cm/s.
